Test system: double stranded DNA
Assay: Polyreactivity ELISA
Assay type: binding
Details: 10 μg/mL VHH-Fc; signal normalized to non-coated well

## H101: anti-HER2 VHH-Fc (2RS15d VHH, human IgG1 Fc); FcRn wt, Fc effector wt [Compound H101]
  Polyreactivity Assay Score, dsDNA: 1.406

## H106: anti-HER2 VHH-Fc, FcRn mutant S254A [Compound H106]
  Polyreactivity Assay Score, dsDNA: 1.446

## H107: anti-HER2 VHH-Fc, FcRn mutant H310A [Compound H107]
  Polyreactivity Assay Score, dsDNA: 1.678

## H108: anti-HER2 VHH-Fc, FcRn mutant H435Q [Compound H108]
  Polyreactivity Assay Score, dsDNA: 1.663

## H109: anti-HER2 VHH-Fc, FcRn mutant Y463A (as printed) [Compound H109]
  Polyreactivity Assay Score, dsDNA: 1.579
